In patent US4666890A, “Peptide, process for preparation thereof and use thereof” (priority 1978, dated 1987):
Several values for one entry are separate records, joined by “and”; a condition that tells them apart may be missing. Equal values may be shown once. At least one peptide structure holds a part that was inferred or is arguable (an end, a ring closure or a residue). Peptide text beside a SMILES is read from it.

System: Mice (DDY male 5-6 W)
Assay: Blood stream clearance of carbon
Assay type: in vivo
Method: 1. Carbon suspension. Rotoring drawing ink (170 mg carbon/ml.) was diluted to 1/5 of the original concentration in saline containing 1% gelatin.
2. 0.1% aqueous sodium carbonate solution.
Mice (DDY male 5-6 W) were injected via the tail vein with a dose of 0.01 ml/g body weight of carbon. Blood samples were taken by means of a pointed capillary pippet calibrated to hold a 50 μl and previously washed in heparin. This was plunged into the retrooribital venous sinus at the nasal angle of the eye. The samples were removed at 3 and 6 min. The blood was immediately discharged into 3.0 ml. of the sodium carbonate solution. This hemolyszed the blood and allowed the quantitation of carbon. The samples were then read in a spectrophotometer at 660 nm, the log concentration being obtained from a previously determined standard curve. The clearance value K may be determined by plotting log carbon concentration against time according to the following relationship; [formula] in which T1 and T2 represent the time in min when the sample were withdrawn and C1 and C2 represent the concentrations of carbon in the blood at the time T1 and T2, respectively.
The aqueous solution of the test compound as given was administered subcutaneously to mice. Twenty four hours later, blood stream clearance of carbon was measured. K value obtained with treated mice was compared with that of control mice.

Structure (SMILES) | Ktreated /Kcontrol (dose 0.06 mg/mouse) | Ktreated /Kcontrol (subcutaneous, 0.1 mg/kg, clearance measured 24 hours later) | Ktreated /Kcontrol (subcutaneous, 1 mg/kg, clearance measured 24 hours later) | Ktreated /Kcontrol (subcutaneous, 10 mg/kg, clearance measured 24 hours later) | Ktreated /Kcontrol (dose 125 mg/mouse) | Ktreated /Kcontrol (dose 400 mg/mouse)
C[C@H](NC(=O)[C@@H](C)O)C(=O)N[C@H](CCC(=O)N[C@@H](CCC[C@@H](N)C(=O)O)C(=O)NCC(=O)O)C(=O)O [FR-900156 substance] | 1.5 | 1.2 | 1.9 and 1.6 and 2.5 and 2.2 and 1.8 | 5.0 |  | 
C[C@@H](O)[C@H](N)C(=O)N[C@@H](CCCCN)C(=O)N1CCC[C@H]1C(=O)N[C@@H](CCCNC(=N)N)C(=O)O [Tuftsin, reference compound] (H-TKPR-OH) |  |  |  |  | 1.0 | 1.4
